Test results taken from the supplement of paper PMC8728848.
The list shows a part of the results.

Experiments:
Assay in all cases: glycan array binding signal (z-score within array); higher = stronger binding
Settings in all cases: glycan notation: IUPAC condensed, linker removed
[1] = target: Gal(b1-4)GlcNAc(b1-2)[Gal(b1-4)GlcNAc(b1-6)]Man(a1-6)[GlcNAc(b1-4)][Gal(b1-4)GlcNAc(b1-2)Man(a1-3)]Man(b1-4)GlcNAc(b1-4)GlcNAc
How it was run: (§1)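 Arrays were curated from the Consortium for Functional Glycomics database, 3228 in total, and kept only where the protein sequence was available. Binding is expressed as a within-array Z-score. This score was averaged across arrays of the same protein sequence at different concentrations or buffers and across linkers, and negative values can be read as non-binding.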

[2] = target: Gal(b1-4)GlcNAc(b1-2)[Gal(b1-4)GlcNAc(b1-6)]Man(a1-6)[GlcNAc(b1-4)][Gal(b1-4)GlcNAc(b1-2)[Gal(b1-4)GlcNAc(b1-4)]Man(a1-3)]Man(b1-4)GlcNAc(b1-4)[Fuc(a1-6)]GlcNAc
How it was run: as §1

[3] = target: Gal(b1-4)GlcNAc(b1-3)Gal(b1-3)GalNAc
How it was run: as §1

[4] = target: Gal(b1-4)GlcNAc(b1-3)Gal(b1-3)GlcNAc
How it was run: as §1

[5] = target: Gal(b1-4)GlcNAc(b1-3)Gal(b1-4)Glc
How it was run: as §1

[6] = target: Gal(b1-4)GlcNAc(b1-3)Gal(b1-4)GlcNAc
How it was run: as §1

[7] = target: Gal(b1-4)GlcNAc(b1-3)Gal(b1-4)GlcNAc(b1-2)Man(a1-3)[Gal(b1-4)GlcNAc(b1-3)Gal(b1-4)GlcNAc(b1-2)Man(a1-6)]Man(b1-4)GlcNAc(b1-4)GlcNAc
How it was run: as §1

[8] = target: Gal(b1-4)GlcNAc(b1-3)Gal(b1-4)GlcNAc(b1-2)Man(a1-3)[Gal(b1-4)GlcNAc(b1-3)Gal(b1-4)GlcNAc(b1-2)Man(a1-6)]Man(b1-4)GlcNAc(b1-4)[Fuc(a1-6)]GlcNAc
How it was run: as §1

[9] = target: Gal(b1-4)GlcNAc(b1-3)Gal(b1-4)GlcNAc(b1-2)[Gal(b1-4)GlcNAc(b1-3)Gal(b1-4)GlcNAc(b1-6)]Man(a1-6)[Gal(b1-4)GlcNAc(b1-3)Gal(b1-4)GlcNAc(b1-2)Man(a1-3)]Man(b1-4)GlcNAc(b1-4)GlcNAc
How it was run: as §1

[10] = target: Gal(b1-4)GlcNAc(b1-3)Gal(b1-4)GlcNAc(b1-2)[Gal(b1-4)GlcNAc(b1-3)Gal(b1-4)GlcNAc(b1-6)]Man(a1-6)[Gal(b1-4)GlcNAc(b1-3)Gal(b1-4)GlcNAc(b1-2)Man(a1-3)]Man(b1-4)GlcNAc(b1-4)[Fuc(a1-6)]GlcNAc
How it was run: as §1

[11] = target: Gal(b1-4)GlcNAc(b1-3)Gal(b1-4)GlcNAc(b1-3)Gal(b1-4)GlcNAc
How it was run: as §1

[12] = target: Gal(b1-4)GlcNAc(b1-3)Gal(b1-4)GlcNAc(b1-3)Gal(b1-4)GlcNAc(b1-2)Man(a1-3)[Gal(b1-4)GlcNAc(b1-3)Gal(b1-4)GlcNAc(b1-3)Gal(b1-4)GlcNAc(b1-2)Man(a1-6)]Man(b1-4)GlcNAc(b1-4)GlcNAc
How it was run: as §1

[13] = target: Gal(b1-4)GlcNAc(b1-3)Gal(b1-4)GlcNAc(b1-3)Gal(b1-4)GlcNAc(b1-2)Man(a1-3)[Gal(b1-4)GlcNAc(b1-3)Gal(b1-4)GlcNAc(b1-3)Gal(b1-4)GlcNAc(b1-2)Man(a1-6)]Man(b1-4)GlcNAc(b1-4)[Fuc(a1-6)]GlcNAc
How it was run: as §1

[14] = target: Gal(b1-4)GlcNAc(b1-3)Gal(b1-4)GlcNAc(b1-3)Gal(b1-4)GlcNAc(b1-2)[Gal(b1-4)GlcNAc(b1-3)Gal(b1-4)GlcNAc(b1-3)Gal(b1-4)GlcNAc(b1-6)]Man(a1-6)[Gal(b1-4)GlcNAc(b1-3)Gal(b1-4)GlcNAc(b1-3)Gal(b1-4)GlcNAc(b1-2)Man(a1-3)]Man(b1-4)GlcNAc(b1-4)[Fuc(a1-6)]GlcNAc
How it was run: as §1

[15] = target: Gal(b1-4)GlcNAc(b1-3)Gal(b1-4)GlcNAc(b1-3)Gal(b1-4)GlcNAc(b1-3)Gal(b1-4)GlcNAc(b1-2)Man(a1-3)[Gal(b1-4)GlcNAc(b1-3)Gal(b1-4)GlcNAc(b1-3)Gal(b1-4)GlcNAc(b1-3)Gal(b1-4)GlcNAc(b1-2)Man(a1-6)]Man(b1-4)GlcNAc(b1-4)GlcNAc
How it was run: as §1

[16] = target: Gal(b1-4)GlcNAc(b1-3)Gal(b1-4)GlcNAc(b1-3)Gal(b1-4)GlcNAc(b1-3)Gal(b1-4)GlcNAc(b1-2)Man(a1-3)[Gal(b1-4)GlcNAc(b1-3)Gal(b1-4)GlcNAc(b1-3)Gal(b1-4)GlcNAc(b1-3)Gal(b1-4)GlcNAc(b1-2)Man(a1-6)]Man(b1-4)GlcNAc(b1-4)[Fuc(a1-6)]GlcNAc
How it was run: as §1

[17] = target: Gal(b1-4)GlcNAc(b1-3)Gal(b1-4)GlcNAc(b1-3)Gal(b1-4)GlcNAc(b1-3)Gal(b1-4)GlcNAc(b1-2)[Gal(b1-4)GlcNAc(b1-3)Gal(b1-4)GlcNAc(b1-3)Gal(b1-4)GlcNAc(b1-3)Gal(b1-4)GlcNAc(b1-6)]Man(a1-6)[Gal(b1-4)GlcNAc(b1-3)Gal(b1-4)GlcNAc(b1-3)Gal(b1-4)GlcNAc(b1-3)Gal(b1-4)GlcNAc(b1-2)Man(a1-3)]Man(b1-4)GlcNAc(b1-4)[Fuc(a1-6)]GlcNAc
How it was run: as §1

[18] = target: Gal(b1-4)GlcNAc(b1-3)Gal(b1-4)GlcNAc(b1-3)Gal(b1-4)GlcNAc(b1-3)Gal(b1-4)GlcNAc(b1-3)Gal(b1-4)GlcNAc(b1-2)Man(a1-3)[Gal(b1-4)GlcNAc(b1-3)Gal(b1-4)GlcNAc(b1-3)Gal(b1-4)GlcNAc(b1-3)Gal(b1-4)GlcNAc(b1-3)Gal(b1-4)GlcNAc(b1-2)Man(a1-6)]Man(b1-4)GlcNAc(b1-4)GlcNAc
How it was run: as §1

[19] = target: Gal(b1-4)GlcNAc(b1-3)Gal(b1-4)GlcNAc(b1-3)Gal(b1-4)GlcNAc(b1-3)Gal(b1-4)GlcNAc(b1-3)Gal(b1-4)GlcNAc(b1-2)Man(a1-3)[Gal(b1-4)GlcNAc(b1-3)Gal(b1-4)GlcNAc(b1-3)Gal(b1-4)GlcNAc(b1-3)Gal(b1-4)GlcNAc(b1-3)Gal(b1-4)GlcNAc(b1-2)Man(a1-6)]Man(b1-4)GlcNAc(b1-4)[Fuc(a1-6)]GlcNAc
How it was run: as §1

[20] = target: Gal(b1-4)GlcNAc(b1-3)Gal(b1-4)GlcNAc(b1-3)Gal(b1-4)GlcNAc(b1-3)Gal(b1-4)GlcNAc(b1-3)Gal(b1-4)GlcNAc(b1-2)[Gal(b1-4)GlcNAc(b1-3)Gal(b1-4)GlcNAc(b1-3)Gal(b1-4)GlcNAc(b1-3)Gal(b1-4)GlcNAc(b1-3)Gal(b1-4)GlcNAc(b1-6)]Man(a1-6)[Gal(b1-4)GlcNAc(b1-3)Gal(b1-4)GlcNAc(b1-3)Gal(b1-4)GlcNAc(b1-3)Gal(b1-4)GlcNAc(b1-3)Gal(b1-4)GlcNAc(b1-2)Man(a1-3)]Man(b1-4)GlcNAc(b1-4)[Fuc(a1-6)]GlcNAc
How it was run: as §1

[21] = target: Gal(b1-4)GlcNAc(b1-3)Gal(b1-4)GlcNAc(b1-3)Gal(b1-4)GlcNAc(b1-3)Gal(b1-4)GlcNAc(b1-3)Gal(b1-4)GlcNAc(b1-3)Gal(b1-4)GlcNAc(b1-2)Man(a1-3)[Gal(b1-4)GlcNAc(b1-3)Gal(b1-4)GlcNAc(b1-3)Gal(b1-4)GlcNAc(b1-3)Gal(b1-4)GlcNAc(b1-3)Gal(b1-4)GlcNAc(b1-3)Gal(b1-4)GlcNAc(b1-2)Man(a1-6)]Man(b1-4)GlcNAc(b1-4)GlcNAc
How it was run: as §1

[22] = target: Gal(b1-4)GlcNAc(b1-3)Gal(b1-4)GlcNAc(b1-3)GalNAc
How it was run: as §1

[23] = target: Gal(b1-4)GlcNAc(b1-3)Gal(b1-4)GlcNAc(b1-3)[Gal(b1-4)GlcNAc(b1-3)Gal(b1-4)GlcNAc(b1-6)]GalNAc
How it was run: as §1

[24] = target: Gal(b1-4)GlcNAc(b1-3)Gal(b1-4)GlcNAc(b1-6)[Gal(b1-3)]GalNAc
How it was run: as §1

[25] = target: Gal(b1-4)GlcNAc(b1-3)Gal(b1-4)[Fuc(a1-3)]GlcNAc(b1-3)Gal(b1-4)[Fuc(a1-3)]GlcNAc
How it was run: as §1

[26] = target: Gal(b1-4)GlcNAc(b1-3)GalNAc
How it was run: as §1

[27] = target: Gal(b1-4)GlcNAc(b1-3)[Fuc(a1-3)GlcNAc(b1-6)]Gal(b1-4)Glc
How it was run: as §1

[28] = target: Gal(b1-4)GlcNAc(b1-3)[Gal(b1-4)GlcNAc(b1-6)]Gal(b1-4)GlcNAc
How it was run: as §1

[29] = target: Gal(b1-4)GlcNAc(b1-3)[GlcNAc(b1-6)]Gal(b1-4)GlcNAc
How it was run: as §1

[30] = target: Gal(b1-4)GlcNAc(b1-6)Gal(b1-4)GlcNAc
How it was run: as §1

[31] = target: Gal(b1-4)GlcNAc(b1-6)GalNAc
How it was run: as §1

[32] = target: Gal(b1-4)GlcNAc(b1-6)[Gal(b1-3)]GalNAc
How it was run: as §1

[33] = target: Gal(b1-4)GlcNAc(b1-6)[Gal(b1-4)GlcNAc(b1-3)]GalNAc
How it was run: as §1

Gal(b1-4)GlcNAc6P = target: Gal(b1-4)GlcNAc6P
How it was run: as §1

Gal(b1-6)Gal = target: Gal(b1-6)Gal
How it was run: as §1

Gal3S(b1-3)GalNAc = target: Gal3S(b1-3)GalNAc
How it was run: as §1

Gal3S(b1-3)GlcNAc = target: Gal3S(b1-3)GlcNAc
How it was run: as §1

[34] = target: Gal3S(b1-3)[Fuc(a1-4)]GlcNAc
How it was run: as §1

B1: PX14343I-pdi-501-30-501 (Parabacteroides distasonis) (protein)
chain: SDQYSTETFWKTKEHASAGIMGCYNALKLWRSLHTMEFDMLTANAMPYNEANGTQAIGKGEHLSTTALIGSLWKNCYVGIGRTNTFIANVGGVDMDESEKAKMVGEAKFLRAFYYLSLVDKFGGVPLIIDAPNADEQAELPRNSKEEVVNQIVKDLEEAAAVLPDTYASSDLGRATKGAALALKARTLLYNSRWAEAAQAAKQVMESGVYQLFNDYRHFFSEDNKYNCEVIFDIEAKLPEYPTDYDQNIWRLNRPAPLKELVDTYLCVDGKTIEESPLYDPTRPYENRDPRLLKSIVCIGYPYLGKTITKEDVATTGFGVKKYTSYEDDVTIPLVERSAFNFILIRYAEVLLTYAEAQNEASGPDQSVYDAINQLRRRPDINMPEVPKGLTKDQMREVIRRERRIELTFEGLYYSDILRWKTAEKENNGMMHNYEGIEVVKRSFNPKRDYLWPIPYNQTVLNPNLEQNPNWD
[1]
  glycan array binding signal (z-score): -0.439
[2]
  glycan array binding signal (z-score): -1
[3]
  glycan array binding signal (z-score): -0.11
[4]
  glycan array binding signal (z-score): -0.82
[5]
  glycan array binding signal (z-score): -0.191
[6]
  glycan array binding signal (z-score): 0.486
[7]
  glycan array binding signal (z-score): 1.61
[8]
  glycan array binding signal (z-score): 1.05
[9]
  glycan array binding signal (z-score): 0.284
[10]
  glycan array binding signal (z-score): 0.03
[11]
  glycan array binding signal (z-score): -0.202
[12]
  glycan array binding signal (z-score): 1.39
[13]
  glycan array binding signal (z-score): 0.323
[14]
  glycan array binding signal (z-score): 0.543
[15]
  glycan array binding signal (z-score): 0.75
[16]
  glycan array binding signal (z-score): 0.506
[17]
  glycan array binding signal (z-score): 0.444
[18]
  glycan array binding signal (z-score): -0.336
[19]
  glycan array binding signal (z-score): 0.385
[20]
  glycan array binding signal (z-score): 1.86
[21]
  glycan array binding signal (z-score): 0.503
[22]
  glycan array binding signal (z-score): -0.109
[23]
  glycan array binding signal (z-score): -0.056
[24]
  glycan array binding signal (z-score): 0.193
[25]
  glycan array binding signal (z-score): -0.267
[26]
  glycan array binding signal (z-score): -0.251
[27]
  glycan array binding signal (z-score): -0.132
[28]
  glycan array binding signal (z-score): -0.2
[29]
  glycan array binding signal (z-score): -0.011
[30]
  glycan array binding signal (z-score): -0.299
[31]
  glycan array binding signal (z-score): -0.209
[32]
  glycan array binding signal (z-score): -0.181
[33]
  glycan array binding signal (z-score): 0.582
Gal(b1-4)GlcNAc6P
  glycan array binding signal (z-score): 0.039
Gal(b1-6)Gal
  glycan array binding signal (z-score): 1.39
Gal3S(b1-3)GalNAc
  glycan array binding signal (z-score): 0.039
Gal3S(b1-3)GlcNAc
  glycan array binding signal (z-score): -0.097
[34]
  glycan array binding signal (z-score): -0.195
